Measured values from the supplement of paper PMC4604168 (melanoma cell lines).
Some of the results follow. Repeats are few or missing, and single values can be far off.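 Imaging used 1,536-well plates; nuclei positive for cleaved PARP by antibody were divided by total DNA-stained nuclei to yield the apoptosis fraction. Doses for screening kept most cells viable, and cell lines differ markedly in resting and induced cleaved-PARP levels.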

What was measured:
Assay in all cases: cleaved PARP positive nuclei fraction relative to DMSO control; melanoma cells; higher = more apoptosis
Details in all cases: library dose: low library concentration; 72 h
MZ2-MEL = tested on: MZ2-MEL
MeWo = tested on: MeWo
RPMI7951 = tested on: RPMI7951
RVH-421 = tested on: RVH-421
SkMel28 = tested on: SkMel28
SkMel2 = tested on: SkMel2
SkMel30 = tested on: SkMel30
UACC62 = tested on: UACC62

| Structure (SMILES) | cleaved PARP positive nuclei fraction (MZ2-MEL) [%] | cleaved PARP positive nuclei fraction (MeWo) [%] | cleaved PARP positive nuclei fraction (RPMI7951) [%] | cleaved PARP positive nuclei fraction (RVH-421) [%] | cleaved PARP positive nuclei fraction (SkMel28) [%] | cleaved PARP positive nuclei fraction (SkMel2) [%] | cleaved PARP positive nuclei fraction (SkMel30) [%] | cleaved PARP positive nuclei fraction (UACC62) [%] |
| --- | --- | --- | --- | --- | --- | --- | --- | --- |
| CC(=O)O[C@@]12CO[C@@H]1C[C@H](O)[C@@]1(C)C(=O)[C@H](O)C3=C(C)[C@@H](OC(=O)[C@H](O)[C@@H](NC(=O)OC(C)(C)C)c4ccccc4)C[C@@](O)([C@@H](OC(=O)c4ccccc4)[C@H]21)C3(C)C [Docetaxel] + CNC(=O)c1cc(Oc2ccc(NC(=O)Nc3ccc(Cl)c(C(F)(F)F)c3)cc2)ccn1 [sorafenib] (first compound 0.0001 µM, partner dose 0.4 µM) | 1340 | 289 | 163 | 60 | 337 | 1310 | 500 | 792 |
| CCN(CC)CCNC(=O)c1c(C)[nH]c(/C=C2\C(=O)Nc3ccc(F)cc32)c1C [sunitinib] + CN1CCN(c2ccc3nc(-c4c(N)c5c(F)cccc5[nH]c4=O)[nH]c3c2)CC1 [Dovitinib] (first compound 0.4 µM, partner dose 0.1 µM) | 108 | 104 | 82.6 | 261 | 105 | 98.7 | 143 | 210 |
| COc1ccc(C2=N[C@@H](c3ccc(Cl)cc3)[C@@H](c3ccc(Cl)cc3)N2C(=O)N2CCNC(=O)C2)c(OC(C)C)c1 [Nutlin-3] + Cn1nnc2c(C(N)=O)ncn2c1=O [temozolomide] (first compound 0.1 µM, partner dose 2 µM) | 35.8 | 106 | 54.4 | 178 | 101 | 82.6 | 42.3 | 240 |
| CC(=O)O[C@@]12CO[C@@H]1C[C@H](O)[C@@]1(C)C(=O)[C@H](O)C3=C(C)[C@@H](OC(=O)[C@H](O)[C@@H](NC(=O)OC(C)(C)C)c4ccccc4)C[C@@](O)([C@@H](OC(=O)c4ccccc4)[C@H]21)C3(C)C [Docetaxel] + C#Cc1cccc(Nc2ncnc3cc(OCCOC)c(OCCOC)cc23)c1 [erlotinib] (first compound 0.0001 µM, partner dose 0.8 µM) | 524 | 1010 | 196 | 119 | 142 | 824 | 599 | 346 |
| CCN(CC)CCNC(=O)c1c(C)[nH]c(/C=C2\C(=O)Nc3ccc(F)cc32)c1C [sunitinib] + OCc1c[nH]c2ccccc12 [Indole-3-carbinol] (first compound 0.4 µM, partner dose 0.8 µM) | 62.6 | 86.9 | 66 | 58.9 | 120 | 51.5 | 47.8 | 64.8 |
| Cn1sc(=O)n(Cc2ccccc2)c1=O + Nc1ncn([C@H]2C[C@H](O)[C@@H](CO)O2)c(=O)n1 [decitabine] (first compound 0.4 µM, partner dose 0.1 µM) | 135 | 59.2 | 115 | 176 | 162 | 85.4 | 74.6 | 109 |
| NC(=O)c1ccc(N(C(N)=O)c2c(F)cccc2F)nc1-c1ccc(F)cc1F + O=C(O)c1ccc2c(c1)nc(Nc1cccc(Cl)c1)c1ccncc12 [CX4945] (first compound 0.4 µM, partner dose 0.4 µM) | 71.3 | 176 | 52.2 | 217 | 139 | 58.7 | 68.3 | 68 |
| COc1ccc(C2=N[C@@H](c3ccc(Cl)cc3)[C@@H](c3ccc(Cl)cc3)N2C(=O)N2CCNC(=O)C2)c(OC(C)C)c1 [Nutlin-3] + CN1CCN(c2ccc3nc(-c4c(N)c5c(F)cccc5[nH]c4=O)[nH]c3c2)CC1 [Dovitinib] (first compound 0.1 µM, partner dose 0.1 µM) | 104 | 161 | 133 | 129 | 83.9 | 79.3 | 105 | 128 |
| CCCCCCCCc1ccc(CCC(N)(CO)CO)cc1 [fingolimod] + C=C(c1ccc(C(=O)O)cc1)c1cc2c(cc1C)C(C)(C)CCC2(C)C [Bexarotene] (first compound 2 µM, partner dose 2 µM) | 106 | 49.4 | 92.3 | 98.6 | 285 | 37.2 | 37.6 | 220 |
| Cn1cnc2c(F)c(Nc3ccc(Br)cc3Cl)c(C(=O)NOCCO)cc21 [selumetinib] + O=C(O)[C@@H]1[O][Sb](=[O])([O][Sb]2(=[O])[O][C@H]([C@H](O)CO)[C@H](O)[C@H](C(=O)O)[O]2)[O][C@H]([C@H](O)CO)[C@@H]1O [stibogluconate] (first compound 0.015 µM, partner dose 2 µM) | 150 | 106 | 253 | 145 | 89.9 | 265 | 73.9 | 308 |
| Cn1cnc2c(F)c(Nc3ccc(Br)cc3Cl)c(C(=O)NOCCO)cc21 [selumetinib] + Cc1cc(Nc2cc(N3CCN(C)CC3)nc(/C=C/c3ccccc3)n2)n[nH]1 [ENMD2076] (first compound 0.015 µM, partner dose 0.04 µM) | 350 | 111 | 124 | 124 | 41.5 | 9830 | 57.4 | 178 |
| CCN(CC)CCNC(=O)c1c(C)[nH]c(/C=C2\C(=O)Nc3ccc(F)cc32)c1C [sunitinib] + Nc1ccn([C@@H]2O[C@H](CO)[C@@H](O)C2(F)F)c(=O)n1 [gemcitabine] (first compound 0.4 µM, partner dose 0.0004 µM) | 63.6 | 144 | 171 | 161 | 73.4 | 106 | 27.4 | 77.1 |
| C[C@@H](N)c1ccc(C(=O)Nc2ccnc3[nH]ccc23)cc1 + Nc1cccc2c1CN(C1CCC(=O)NC1=O)C2=O [lenalidomide] (first compound 0.4 µM, partner dose 1 µM) | 160 | 306 | 137 | 88.1 | 167 | 112 | 86.4 | 45.5 |
| Cn1sc(=O)n(Cc2ccccc2)c1=O + COc1ccc(Cl)c(Nc2nc3ccccc3nc2NS(=O)(=O)c2cccc(NC(=O)C(C)(C)N)c2)c1 [XL147] (first compound 0.4 µM, partner dose 0.8 µM) | 71.3 | 203 | 170 | 50.9 | 82.2 | 149 | 147 | 77 |
| Cn1sc(=O)n(Cc2ccccc2)c1=O + Clc1ccc(Nc2nnc(Cc3ccncc3)c3ccccc23)cc1 [vatalanib] (first compound 0.4 µM, partner dose 2 µM) | 95.1 | 153 | 44.9 | 162 | 83.5 | 55.8 | 73.4 | 62.7 |
| Cn1sc(=O)n(Cc2ccccc2)c1=O + Cn1c(Nc2ccc(C(F)(F)F)cc2)nc2cc(Oc3ccnc(-c4ncc(C(F)(F)F)[nH]4)c3)ccc21 [CHIR265] (first compound 0.4 µM, partner dose 0.08 µM) | 164 | 41.3 | 96.6 | 614 | 101 | 97.8 | 69 | 417 |
| CCN(CC)CCNC(=O)c1c(C)[nH]c(/C=C2\C(=O)Nc3ccc(F)cc32)c1C [sunitinib] + C[C@@H](Oc1cc(-c2cnn(C3CCNCC3)c2)cnc1N)c1c(Cl)ccc(F)c1Cl [Crizotinib] (first compound 0.4 µM, partner dose 0.2 µM) | 126 | 37.2 | 230 | 100 | 81.4 | 116 | 129 | 406 |
| CC1(C)CCC(c2ccc(Cl)cc2)=C(CN2CCN(c3ccc(C(=O)NS(=O)(=O)c4ccc(N[C@H](CCN5CCOCC5)CSc5ccccc5)c(S(=O)(=O)C(F)(F)F)c4)cc3)CC2)C1 + Cc1nc(Nc2ncc(C(=O)Nc3c(C)cccc3Cl)s2)cc(N2CCN(CCO)CC2)n1 [dasatanib] (first compound 0.4 µM, partner dose 0.004 µM) | 205 | 307 | 224 | 284 | 96.6 | 134 | 188 | 156 |
| CC1(C)CCC(c2ccc(Cl)cc2)=C(CN2CCN(c3ccc(C(=O)NS(=O)(=O)c4ccc(N[C@H](CCN5CCOCC5)CSc5ccccc5)c(S(=O)(=O)C(F)(F)F)c4)cc3)CC2)C1 + Cn1c(Nc2ccc(C(F)(F)F)cc2)nc2cc(Oc3ccnc(-c4ncc(C(F)(F)F)[nH]4)c3)ccc21 [CHIR265] (first compound 0.4 µM, partner dose 0.08 µM) | 224 | 794 | 515 | 365 | 113 | 407 | 158 | 236 |
| NC(=O)c1ccc(N(C(N)=O)c2c(F)cccc2F)nc1-c1ccc(F)cc1F + Nc1cccc2c1CN(C1CCC(=O)NC1=O)C2=O [lenalidomide] (first compound 0.4 µM, partner dose 1 µM) | 105 | 231 | 174 | 238 | 89.7 | 100 | 54.2 | 101 |
| C[C@@H](N)c1ccc(C(=O)Nc2ccnc3[nH]ccc23)cc1 + O=C(O)[C@@H]1[O][Sb](=[O])([O][Sb]2(=[O])[O][C@H]([C@H](O)CO)[C@H](O)[C@H](C(=O)O)[O]2)[O][C@H]([C@H](O)CO)[C@@H]1O [stibogluconate] (first compound 0.4 µM, partner dose 2 µM) | 65.8 | 88.2 | 196 | 127 | 57 | 197 | 103 | 278 |
| COc1ccc(C2=N[C@@H](c3ccc(Cl)cc3)[C@@H](c3ccc(Cl)cc3)N2C(=O)N2CCNC(=O)C2)c(OC(C)C)c1 [Nutlin-3] + Cc1nc(Nc2ncc(C(=O)Nc3c(C)cccc3Cl)s2)cc(N2CCN(CCO)CC2)n1 [dasatanib] (first compound 0.1 µM, partner dose 0.004 µM) | 93.9 | 70.4 | 151 | 103 | 95.9 | 116 | 50.6 | 177 |

Reformatted: entries from further up
Structure (SMILES)	cleaved PARP positive nuclei fraction (MZ2-MEL) [%]	cleaved PARP positive nuclei fraction (MeWo) [%]	cleaved PARP positive nuclei fraction (RPMI7951) [%]	cleaved PARP positive nuclei fraction (RVH-421) [%]	cleaved PARP positive nuclei fraction (SkMel28) [%]	cleaved PARP positive nuclei fraction (SkMel2) [%]	cleaved PARP positive nuclei fraction (SkMel30) [%]	cleaved PARP positive nuclei fraction (UACC62) [%]
CC(=O)O[C@@]12CO[C@@H]1C[C@H](O)[C@@]1(C)C(=O)[C@H](O)C3=C(C)[C@@H](OC(=O)[C@H](O)[C@@H](NC(=O)OC(C)(C)C)c4ccccc4)C[C@@](O)([C@@H](OC(=O)c4ccccc4)[C@H]21)C3(C)C [Docetaxel] + CNC(=O)c1cc(Oc2ccc(NC(=O)Nc3ccc(Cl)c(C(F)(F)F)c3)cc2)ccn1 [sorafenib] (first compound 0.0001 µM, partner dose 0.4 µM)	1340	289	163	60	337	1310	500	792
CCN(CC)CCNC(=O)c1c(C)[nH]c(/C=C2\C(=O)Nc3ccc(F)cc32)c1C [sunitinib] + CN1CCN(c2ccc3nc(-c4c(N)c5c(F)cccc5[nH]c4=O)[nH]c3c2)CC1 [Dovitinib] (first compound 0.4 µM, partner dose 0.1 µM)	108	104	82.6	261	105	98.7	143	210
